Test results published in article PMC9971907, “Cryo-EM analysis of V/A-ATPase intermediates reveals the transition of the ground-state structure to steady-state structures by sequential ATP binding” (The Journal of Biological Chemistry, 2023).
No constants are given. Whether binding was seen depends on the method and setting. Some results given as binding are weak or reduced against the parent protein; the word gives no strength.

Biological target: T1, V/A-ATPase E subunit, Thermus thermophilus (T. thermophilus) (UniProt P74901)
T1 sequence: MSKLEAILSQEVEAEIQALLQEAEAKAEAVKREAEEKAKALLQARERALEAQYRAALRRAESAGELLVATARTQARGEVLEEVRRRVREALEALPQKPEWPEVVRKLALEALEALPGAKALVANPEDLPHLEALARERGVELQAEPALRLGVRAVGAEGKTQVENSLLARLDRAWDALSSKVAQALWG
Assay: cryo-EM structure; nucleotide-free V/A-ATPase in nanodiscs, 4 uM enzyme mixed with an equal volume of x2 RB buffer (50 mM Tris-Cl pH 8.0, 100 mM KCl, 2 mM MgCl2, 5 mM PEP, 100 ug/ml PK, 20 mM ammonium sulfate) with ATP-Mg (low ATP, 60 s; or saturating ATP, 5 s or 30 s) at 25 °C; single-particle analysis, membrane domain subtracted, focused refinement of V1EG; both purified

binding: binds
B1: V/A-ATPase G subunit, Thermus thermophilus (protein, UniProt Q5SIT5 1-120)
chain: MTGGLVLNAISRAGGAMGGLGLIKSLAEKEKQLLERLEAAKKEAEERVKRAEAEAKALLEEAEAKAKALEAQYRERERAETEALLARYRERAEAEAKAVREKAMARLDEAVALVLKEVLP
